These are yes or no findings as the source states them, for the method shown. In cells and extracts the contact can be indirect. Some results given as binding are weak or reduced against the parent protein; the word gives no strength. Tags and fused reporters may be left off the sequences shown.
Key:
[1] = biological target: T1, Flag-GSDME (gasdermin E, wild type) (human) (UniProt O60443); assay: proximity ligation; Duolink in situ PLA in AsPC-1 cells (GSDME knockout, re-expressing Flag-tagged constructs) treated with PBS or trypsin/chymotrypsin for 48 h; anti-Flag and anti-YBX1 antibodies; fixed, permeabilised cells
T1 sequence: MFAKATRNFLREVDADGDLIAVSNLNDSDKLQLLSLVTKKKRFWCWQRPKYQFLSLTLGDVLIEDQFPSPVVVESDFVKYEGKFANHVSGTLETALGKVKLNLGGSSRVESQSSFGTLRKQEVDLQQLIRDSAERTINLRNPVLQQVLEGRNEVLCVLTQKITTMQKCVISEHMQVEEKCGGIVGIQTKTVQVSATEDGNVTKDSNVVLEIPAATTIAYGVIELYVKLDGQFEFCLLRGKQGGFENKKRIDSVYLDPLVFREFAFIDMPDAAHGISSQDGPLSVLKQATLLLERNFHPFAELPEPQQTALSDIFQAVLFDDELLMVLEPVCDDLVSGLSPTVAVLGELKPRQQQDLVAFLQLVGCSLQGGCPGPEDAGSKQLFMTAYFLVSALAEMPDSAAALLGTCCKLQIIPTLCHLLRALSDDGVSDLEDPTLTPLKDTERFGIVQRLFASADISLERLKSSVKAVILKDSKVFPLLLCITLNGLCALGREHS

The chains behind the UniProt entries cited, without tags or fusion partners.
UniProt P67809: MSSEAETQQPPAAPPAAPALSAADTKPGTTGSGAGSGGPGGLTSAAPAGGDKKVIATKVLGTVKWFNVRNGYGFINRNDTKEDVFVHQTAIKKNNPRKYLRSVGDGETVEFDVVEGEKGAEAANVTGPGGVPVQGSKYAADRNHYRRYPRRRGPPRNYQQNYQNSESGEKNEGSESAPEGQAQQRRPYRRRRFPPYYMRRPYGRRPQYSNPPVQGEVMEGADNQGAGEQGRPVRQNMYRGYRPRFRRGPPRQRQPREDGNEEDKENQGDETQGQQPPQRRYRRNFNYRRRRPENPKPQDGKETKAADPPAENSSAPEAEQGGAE

[2] = biological target: T2, Flag-GSDMB (gasdermin B, wild type) (human) (UniProt Q8TAX9); assay: as above
T2 sequence: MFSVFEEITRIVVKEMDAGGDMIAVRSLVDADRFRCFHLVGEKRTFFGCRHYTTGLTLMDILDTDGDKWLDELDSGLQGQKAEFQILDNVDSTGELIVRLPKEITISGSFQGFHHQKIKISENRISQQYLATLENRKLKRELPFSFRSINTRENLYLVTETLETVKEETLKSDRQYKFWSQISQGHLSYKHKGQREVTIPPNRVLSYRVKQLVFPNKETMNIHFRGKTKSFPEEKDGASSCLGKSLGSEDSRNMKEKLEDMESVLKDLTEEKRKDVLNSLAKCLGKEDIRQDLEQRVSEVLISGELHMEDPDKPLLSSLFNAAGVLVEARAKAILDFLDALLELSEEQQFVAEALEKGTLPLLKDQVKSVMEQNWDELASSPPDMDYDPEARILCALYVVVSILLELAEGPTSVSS

[3] = biological target: T1, Flag-GSDME (gasdermin E, wild type) (human); assay: co-IP; AsPC-1 cells treated with trypsin/chymotrypsin for 36 h; cytosolic or nuclear fraction immunoprecipitated with anti-Flag-GSDME antibody; YBX1 by western blot

binding [1]: binds | binding [2]: no binding | binding [3]: binds
Substance: Y-box-binding protein 1 (YBX1), endogenous (from UniProt P67809 1-324)

Source: article PMC8924000
